The results in this text go back to paper PMC12157864.

The chains behind the UniProt entries cited, without tags or fusion partners. Residues count along the entry.
UniProt Q86WV6: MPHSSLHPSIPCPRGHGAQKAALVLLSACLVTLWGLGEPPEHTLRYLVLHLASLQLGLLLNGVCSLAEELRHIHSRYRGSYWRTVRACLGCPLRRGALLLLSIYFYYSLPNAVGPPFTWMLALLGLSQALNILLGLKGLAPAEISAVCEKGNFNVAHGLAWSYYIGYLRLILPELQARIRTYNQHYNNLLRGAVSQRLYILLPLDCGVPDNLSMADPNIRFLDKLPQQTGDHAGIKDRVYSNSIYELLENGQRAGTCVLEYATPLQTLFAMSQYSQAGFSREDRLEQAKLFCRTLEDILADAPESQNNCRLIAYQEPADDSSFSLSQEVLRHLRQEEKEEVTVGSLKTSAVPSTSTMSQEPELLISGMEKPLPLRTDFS
UniProt Q13586, residues 23-685: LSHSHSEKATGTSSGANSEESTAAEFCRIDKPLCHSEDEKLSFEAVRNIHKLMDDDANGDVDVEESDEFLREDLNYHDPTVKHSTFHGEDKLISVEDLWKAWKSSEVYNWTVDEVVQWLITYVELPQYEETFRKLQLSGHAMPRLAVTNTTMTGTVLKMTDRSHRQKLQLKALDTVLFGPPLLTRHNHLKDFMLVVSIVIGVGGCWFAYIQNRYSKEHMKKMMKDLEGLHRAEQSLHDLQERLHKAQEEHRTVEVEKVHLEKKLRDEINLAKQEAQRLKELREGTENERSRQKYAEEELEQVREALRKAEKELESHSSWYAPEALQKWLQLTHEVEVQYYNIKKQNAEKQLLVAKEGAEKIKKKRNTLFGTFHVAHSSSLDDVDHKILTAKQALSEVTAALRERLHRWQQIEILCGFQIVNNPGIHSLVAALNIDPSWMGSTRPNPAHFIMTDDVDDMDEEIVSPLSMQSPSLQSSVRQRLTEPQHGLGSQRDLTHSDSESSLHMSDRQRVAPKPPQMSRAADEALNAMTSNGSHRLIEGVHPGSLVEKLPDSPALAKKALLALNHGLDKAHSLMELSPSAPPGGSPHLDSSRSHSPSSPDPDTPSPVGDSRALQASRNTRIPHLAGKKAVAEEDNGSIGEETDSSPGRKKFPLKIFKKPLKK

These are yes or no findings as the source states them, for the method shown. In cells and extracts the contact can be indirect. Some binding calls cover weakened binding; strength is not graded here.

This assay concerns the target HA-MITA (MITA/STING), wild type (UniProt Q86WV6). The experiment in a line: co-IP; […] (20 mM Tris-HCl pH 7.4, 150 mM NaCl, 1 mM EDTA, 1% Triton X-100); […].

Turning to “STIM1-FLAG (stromal interaction molecule 1) (from UniProt Q13586 23-685)”, the binding result is “binds”.
